Holding throughout (experiment): log2 fold change, soluble protein after heating vs DMSO (PISA); higher = thermal stabilisation; K562 cells, 10 uM, 30 min; active = over 0.2 and 3.5 SD of the protein, either way, in both replicates (recomputed)
Compound in assay [1]: C#Cc1cccc(Nc2ncnc3cc(OCCOC)c(OCCOC)cc23)c1 [erlotinib]
Put shortly:
(§1)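 For each measurement, 10 μM compound was applied for 30 min to K562 cells at 2×10^6 cells/mL. Aliquots were heated for 3 min across 48°C-58°C, pooled, and extracted in PBS with 0.5% NP-40 at 4°C; the supernatant after 21,000xg for 90 min was soluble protein. This was quantified by TMTpro 16plex LC-MS/MS with channel sums equalised, and thermal stability was reported relative to control samples from duplicates, on a log2 fold-change scale.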

Chains of the proteins cited; added tags and fusions are not shown. Lines headed by an entry give the natural chain unless they say otherwise; changes in a name come on top.
UniProt O75845: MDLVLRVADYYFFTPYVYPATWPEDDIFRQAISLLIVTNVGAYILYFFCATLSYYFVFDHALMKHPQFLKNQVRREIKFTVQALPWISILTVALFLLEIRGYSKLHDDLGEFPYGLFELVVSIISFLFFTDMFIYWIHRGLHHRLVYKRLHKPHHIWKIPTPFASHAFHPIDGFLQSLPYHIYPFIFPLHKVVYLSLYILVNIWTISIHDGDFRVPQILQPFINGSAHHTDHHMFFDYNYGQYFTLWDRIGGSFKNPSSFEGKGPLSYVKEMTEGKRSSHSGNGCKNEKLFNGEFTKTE
UniProt Q5PRF9: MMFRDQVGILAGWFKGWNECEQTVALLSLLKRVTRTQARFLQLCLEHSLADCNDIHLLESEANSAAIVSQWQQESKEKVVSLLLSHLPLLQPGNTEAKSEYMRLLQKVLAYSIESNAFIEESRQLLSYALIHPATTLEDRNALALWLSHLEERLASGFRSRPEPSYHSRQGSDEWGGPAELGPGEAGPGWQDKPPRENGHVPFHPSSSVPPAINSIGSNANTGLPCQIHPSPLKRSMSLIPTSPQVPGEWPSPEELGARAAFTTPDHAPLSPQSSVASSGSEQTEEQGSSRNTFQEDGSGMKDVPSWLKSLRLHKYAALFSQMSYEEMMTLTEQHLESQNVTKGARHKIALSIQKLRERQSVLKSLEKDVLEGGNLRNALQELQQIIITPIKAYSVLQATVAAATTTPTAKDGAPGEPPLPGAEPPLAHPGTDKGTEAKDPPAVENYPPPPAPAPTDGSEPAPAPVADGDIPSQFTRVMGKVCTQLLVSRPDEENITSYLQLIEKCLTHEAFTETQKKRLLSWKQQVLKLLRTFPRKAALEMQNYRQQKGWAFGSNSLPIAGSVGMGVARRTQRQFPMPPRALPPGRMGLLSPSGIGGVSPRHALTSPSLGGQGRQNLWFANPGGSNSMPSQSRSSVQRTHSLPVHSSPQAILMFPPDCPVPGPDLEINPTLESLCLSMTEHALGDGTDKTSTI
UniProt P57060: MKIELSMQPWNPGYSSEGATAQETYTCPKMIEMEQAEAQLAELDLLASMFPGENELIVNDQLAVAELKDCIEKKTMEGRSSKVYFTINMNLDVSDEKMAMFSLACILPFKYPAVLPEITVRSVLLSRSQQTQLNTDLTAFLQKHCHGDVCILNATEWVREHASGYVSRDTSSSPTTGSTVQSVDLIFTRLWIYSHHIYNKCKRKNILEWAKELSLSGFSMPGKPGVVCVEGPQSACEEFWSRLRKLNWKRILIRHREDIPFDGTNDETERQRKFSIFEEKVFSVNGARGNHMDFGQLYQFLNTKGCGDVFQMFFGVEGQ
UniProt Q9HB40: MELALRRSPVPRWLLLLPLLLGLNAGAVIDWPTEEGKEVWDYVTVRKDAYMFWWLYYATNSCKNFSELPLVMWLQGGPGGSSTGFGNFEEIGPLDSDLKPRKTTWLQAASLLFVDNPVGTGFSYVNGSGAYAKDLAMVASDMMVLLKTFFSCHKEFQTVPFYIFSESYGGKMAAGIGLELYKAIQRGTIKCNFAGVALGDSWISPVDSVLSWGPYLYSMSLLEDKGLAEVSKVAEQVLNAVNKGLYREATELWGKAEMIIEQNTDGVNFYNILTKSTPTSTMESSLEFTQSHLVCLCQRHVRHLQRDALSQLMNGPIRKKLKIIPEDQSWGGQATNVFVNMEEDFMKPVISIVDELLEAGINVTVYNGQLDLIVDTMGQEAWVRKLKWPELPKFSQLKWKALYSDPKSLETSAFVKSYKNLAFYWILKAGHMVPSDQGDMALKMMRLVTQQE
UniProt O00560: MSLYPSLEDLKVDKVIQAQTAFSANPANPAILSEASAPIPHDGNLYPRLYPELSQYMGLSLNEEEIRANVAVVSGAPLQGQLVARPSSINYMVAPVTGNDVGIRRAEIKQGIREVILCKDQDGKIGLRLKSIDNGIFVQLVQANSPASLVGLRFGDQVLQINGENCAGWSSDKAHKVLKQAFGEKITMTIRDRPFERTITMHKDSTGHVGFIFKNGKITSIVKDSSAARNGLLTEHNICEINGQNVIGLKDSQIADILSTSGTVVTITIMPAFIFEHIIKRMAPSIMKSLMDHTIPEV
UniProt Q96EU6: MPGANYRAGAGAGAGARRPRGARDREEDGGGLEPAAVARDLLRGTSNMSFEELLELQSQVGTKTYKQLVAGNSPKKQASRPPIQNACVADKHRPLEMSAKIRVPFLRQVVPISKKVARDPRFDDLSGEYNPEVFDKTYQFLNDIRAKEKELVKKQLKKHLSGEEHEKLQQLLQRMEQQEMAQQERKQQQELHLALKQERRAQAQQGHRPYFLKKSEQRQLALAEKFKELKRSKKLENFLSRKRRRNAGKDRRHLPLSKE
UniProt O15127: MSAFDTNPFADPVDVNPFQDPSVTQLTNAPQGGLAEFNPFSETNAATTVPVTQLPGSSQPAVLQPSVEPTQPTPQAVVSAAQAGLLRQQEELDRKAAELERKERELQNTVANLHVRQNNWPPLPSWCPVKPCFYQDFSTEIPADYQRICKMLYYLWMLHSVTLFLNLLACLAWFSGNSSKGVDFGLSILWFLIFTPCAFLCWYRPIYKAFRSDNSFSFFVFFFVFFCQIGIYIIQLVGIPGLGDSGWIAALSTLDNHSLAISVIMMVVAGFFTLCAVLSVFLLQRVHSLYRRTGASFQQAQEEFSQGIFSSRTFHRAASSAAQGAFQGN
UniProt Q96IZ7: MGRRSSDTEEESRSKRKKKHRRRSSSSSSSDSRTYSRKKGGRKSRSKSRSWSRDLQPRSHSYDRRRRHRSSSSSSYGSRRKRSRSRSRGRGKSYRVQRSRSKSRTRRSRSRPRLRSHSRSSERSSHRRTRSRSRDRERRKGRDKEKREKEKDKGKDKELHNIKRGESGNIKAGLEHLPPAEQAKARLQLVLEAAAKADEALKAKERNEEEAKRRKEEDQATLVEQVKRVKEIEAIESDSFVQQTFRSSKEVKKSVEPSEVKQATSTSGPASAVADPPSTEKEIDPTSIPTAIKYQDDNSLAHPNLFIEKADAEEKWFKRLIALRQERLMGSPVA

Compound in assay [2]: C/C(=N\NC(=O)C1=CC(=CC=C1)S(=O)(=O)N2CCOCC2)/C3=C(C=CC(=C3)Cl)O
Put shortly:
as §1

Compound in assay [3]: C1=CC(=C(C=C1Cl)C2=NC3=NC=CN=C3C(=N2)NC4=CC=NC=C4)F
In short, it runs like this: as §1

Compound in assay [4]: C1=CC(=CC=C1C2=NC3=C(N2)C=C(C=C3)C(=O)N)OC4=CC=C(C=C4)Cl
Put shortly: as §1

Compound in assay [5]: C1=CC2=C(C=CC(=C2)/C=C\3/C(=O)NC(=NCC4=CC=CS4)S3)N=C1
In short, it runs like this:
as §1

Compound in assay [6]: C1=CC2=NC=CN=C2C=C1/C=C/3\C(=O)NC(=O)S3
Put shortly:
as §1

Compound in assay [7]: C1=CC=C(C=C1)C2=NC(=C(N2)C3=CC=NC=C3)C4=CC(=C(C=C4)Cl)O
In short, it runs like this: as §1

Compound in assay [8]: C1=CC=C2C(=C1)C3=NNC4=CC=CC(=C43)C2=O
In short, it runs like this: as §1

Compound in assay [9]: C1CCN(C1)C(=O)NC2=CC=CC(=C2)NC3=NC=C(C(=N3)NCCC4=CN=CN4)Br
In short, it runs like this:
as §1

Compound in assay [10]: C1CN(CCC1(CC2=CC=C(C=C2)Cl)N)C3=NC=NC4=C3C=CN4
Put shortly:
as §1

Compound in assay [11]: C=CC(=O)N1CCC[C@@H](n2nc(-c3ccc(Oc4ccccc4)cc3)c3c(N)ncnc32)C1 [ibrutinib]
Put shortly: as §1

Compound in assay [12]: CC(=O)c1cnc2ccc(-c3cc(Cl)c(O)c(Cl)c3)nc2c1N[C@H]1CC[C@H](CN(C)C)CC1
In short, it runs like this:
as §1

Compound in assay [13]: CC(C)(C)Cn1c(N)nc2ccc(-c3[nH]c(C(C)(C)C)nc3-c3ccc(F)cc3)nc21 [ralimetinib]
Put shortly: as §1

Compound in assay [14]: CC(C)(O)CC(=O)NCCn1ccc2ncnc(Nc3ccc(Oc4cccc(C(F)(F)F)c4)c(Cl)c3)c21
Put shortly: as §1

Compound in assay [15]: CC(C)C1=C2N=C(C=C(N2N=C1)NCC3=CC=CC=C3)NCCCCCCN
Put shortly: as §1

Compound in assay [16]: CC(C)C[C@@H](C=O)NC(=O)[C@H](CC(C)C)NC(=O)[C@H](CC(C)C)NC(=O)OCc1ccccc1
Put shortly:
as §1

Compound in assay [17]: CC1=C(C(CC(=O)N1)C2=CC=C(C=C2)C(F)(F)F)C(=O)NC3=C(C=C4C(=C3)C=NN4)F
In short, it runs like this: as §1

Compound in assay [18]: CC1=C(C2=C(C=C1)C(=O)C3=CC=CC=C3N2CCCN)C
In short, it runs like this: as §1

Compound in assay [19]: C1COCCN1CCN2C3=CC=CC=C3N=C2NC(=O)C4=CC(=CC=C4)[N+](=O)[O-] [IRAK-1-4 Inhibitor I]
Put shortly: as §1

Compound in assay [20]: CC(C)N(C[C@H]1O[C@@H](n2cnc3c(N)ncnc32)[C@H](O)[C@@H]1O)[C@H]1C[C@@H](CCc2nc3cc(C(C)(C)C)ccc3[nH]2)C1 [pinometostat]
In short, it runs like this:
as §1

The values that follow come from the supplement of paper PMC10849652.

The other results are listed elsewhere or left out. Residues, ends and D or L forms follow the SMILES beside them. *: point of attachment. Cbz = O=C(OCc1ccccc1)*

Turning to SC5D (UniProt O75845), the log2 fold change in assay [1] is inactive: -0.021; in [2], inactive: 0.026; in [3], inactive: 0.013; in [4] it was inactive: 0.069; in assay [5] it was inactive: 0.026; in [6], inactive: 0.052. Further, the log2 fold change in [7] was inactive: 0.026; in assay [8], inactive: -0.012; in [9], inactive: -0.071; in assay [10] it was inactive: 0.064; in assay [11], inactive: 0.068; in [12], inactive: 0.064. For the same target, the log2 fold change in [13] was inactive: 0.067; in assay [14], inactive: 0.014; in [15], inactive: 0.047; in [16], inactive: -0.01; in [17], inactive: 0.032; in [18] it was inactive: 0.154.

SDHB, A0A087WXX8: the log2 fold change is inactive: 0.155 in assay [1]; inactive: -0.148 in [2]; inactive: -0.103 in [4]; inactive: 0.149 in [5]; inactive: 0.121 in assay [6]; inactive: -0.099 in assay [7]. Besides, the log2 fold change in [8] is inactive: -0.098; in assay [11], inactive: -0.11; in assay [12], inactive: -0.095; in assay [13] it was inactive: -0.053; in [15], inactive: 0.009; in [16] it was inactive: -0.104. Moreover, the log2 fold change in assay [17] is inactive: 0.141.

Regarding SAMD4B (UniProt Q5PRF9), the log2 fold change is inactive: -0.117 in assay [1]; inactive: -0.17 in [3]; inactive: -0.13 in assay [4]; inactive: 0.124 in assay [6]; inactive: -0.135 in assay [7]; inactive: 0.037 in [9]. Further, the log2 fold change in assay [10] is inactive: 0.045; in assay [19], inactive: 0.007; in assay [11] it was inactive: -0.024; in assay [13], inactive: 0.053; in assay [14], inactive: 0.133; in [15], inactive: 0.142. In addition, the figures for the log2 fold change in [16], in assay [20] and in [18] were inactive: 0.04, inactive: 0.051 and inactive: 0.039, respectively.

In the case of RWDD2B (UniProt P57060), the log2 fold change is inactive: 0.141 in assay [1]; inactive: 0.091 in [2]; inactive: 0.085 in assay [4]; inactive: 0.135 in assay [5]; inactive: -0.002 in assay [7]; inactive: -0.128 in assay [8]. Moreover, the log2 fold change is inactive: 0.03 in assay [19]; inactive: 0.087 in assay [12]; inactive: 0.073 in assay [13]; inactive: -0.216 in [15]; inactive: 0.045 in [16]; inactive: 0 in assay [20].

As for SCPEP1 (UniProt Q9HB40), the log2 fold change was inactive: -0.002 in [1]; inactive: 0.017 in assay [2]; inactive: 0.064 in assay [3]; inactive: 0.015 in assay [4]; inactive: -0.024 in assay [5]; inactive: 0.058 in [6]. Further, the log2 fold change is inactive: -0.013 in assay [7]; inactive: 0.017 in [8]; inactive: -0.012 in assay [9]; inactive: 0.079 in [10]; inactive: 0.044 in [19]; inactive: 0.072 in [11]. Further, the log2 fold change in assay [12] was inactive: -0.008; in assay [13], inactive: -0.005; in [14] it was inactive: -0.038; in assay [15], active: -0.5; in assay [16] it was inactive: 0.007; in assay [20], inactive: -0.032. In assay [18], the log2 fold change was inactive: 0.073.

With SDCBP (UniProt O00560), the log2 fold change is inactive: -0.048 in [1]; inactive: -0.1 in assay [2]; inactive: -0.058 in [3]; inactive: 0.047 in assay [4]; inactive: -0.036 in [5]; inactive: -0.008 in assay [6]. Moreover, the log2 fold change was inactive: 0.034 in assay [7]; inactive: 0.002 in [8]; inactive: -0.021 in [9]; inactive: -0.045 in [10]; inactive: 0.021 in [19]; inactive: 0.139 in assay [11]. Moreover, the log2 fold change in assay [12] was inactive: -0.02; in assay [13], inactive: -0.036; in [14] it was inactive: -0.064; in [15] it was active: -0.671; in [16], inactive: 0.181; in assay [20] it was inactive: 0.057. In addition, the log2 fold change in assay [18] is inactive: -0.007.

Take RRP36 (UniProt Q96EU6): the log2 fold change in assay [1] was inactive: -0.192; in assay [2], inactive: -0.147; in [3], inactive: -0.586; in assay [4], inactive: -0.005; in assay [5] it was inactive: -0.133; in [6] it was inactive: -0.06. The log2 fold change in [7] was inactive: 0.019; in assay [8], inactive: 0.012; in assay [9], inactive: 0.045; in [10] it was inactive: -0.146; in [11], inactive: 0.045; in assay [12] it was inactive: 0.122. For the same target, the log2 fold change in assay [13] was inactive: 0.083; in assay [14], inactive: 0; in assay [15], inactive: 0.044; in assay [16] it was inactive: 0.042; in assay [18] it was active: -0.785.

As to SCAMP2 (UniProt O15127), the log2 fold change in assay [1] was inactive: 0.014; in [2], inactive: 0.141; in assay [3], inactive: 0.081; in assay [4] it was inactive: 0.011; in assay [5], inactive: -0.154; in [6] it was inactive: 0.063. Also, the log2 fold change in [7] is inactive: 0.055; in assay [8], inactive: 0.057; in [9] it was inactive: -0.116; in [10], inactive: 0.087; in assay [11] it was inactive: 0.09; in [12], inactive: 0.08. The log2 fold change in [13] is inactive: -0.019; in assay [14], inactive: 0.013; in assay [15], inactive: 0.003; in assay [16] it was inactive: 0.036; in assay [18] it was inactive: -0.066.

As for RSRC1 (UniProt Q96IZ7), the log2 fold change in assay [1] was inactive: 0; in [2], inactive: 0.135; in assay [3], inactive: -0.148; in assay [4], inactive: 0.071; in [5], inactive: -0.033; in assay [6] it was inactive: -0.057. Besides, the log2 fold change was inactive: -0.026 in [7]; inactive: -0.073 in assay [8]; inactive: 0.016 in assay [9]; inactive: -0.1 in [10]; inactive: -0.062 in assay [19]; inactive: 0.034 in assay [11]. The log2 fold change in assay [12] is inactive: -0.178; in assay [13] it was inactive: -0.01; in assay [14], inactive: 0.056; in assay [15], inactive: -0.071; in assay [16] it was inactive: 0.009; in assay [20], inactive: -0.017. For the same target, the log2 fold change in assay [18] is inactive: 0.047.
